{"sequences": {"note": "Protein sequences, listed by entry. Tags and fused reporters are not part of them. Lines headed by an entry give the natural chain unless they say otherwise; changes in a name come on top.", "UniProt Q9UFW8": "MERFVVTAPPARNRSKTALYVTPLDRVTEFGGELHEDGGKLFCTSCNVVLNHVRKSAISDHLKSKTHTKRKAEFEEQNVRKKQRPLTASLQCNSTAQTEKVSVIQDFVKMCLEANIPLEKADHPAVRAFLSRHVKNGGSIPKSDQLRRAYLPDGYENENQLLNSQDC", "UniProt Q9NYF5": "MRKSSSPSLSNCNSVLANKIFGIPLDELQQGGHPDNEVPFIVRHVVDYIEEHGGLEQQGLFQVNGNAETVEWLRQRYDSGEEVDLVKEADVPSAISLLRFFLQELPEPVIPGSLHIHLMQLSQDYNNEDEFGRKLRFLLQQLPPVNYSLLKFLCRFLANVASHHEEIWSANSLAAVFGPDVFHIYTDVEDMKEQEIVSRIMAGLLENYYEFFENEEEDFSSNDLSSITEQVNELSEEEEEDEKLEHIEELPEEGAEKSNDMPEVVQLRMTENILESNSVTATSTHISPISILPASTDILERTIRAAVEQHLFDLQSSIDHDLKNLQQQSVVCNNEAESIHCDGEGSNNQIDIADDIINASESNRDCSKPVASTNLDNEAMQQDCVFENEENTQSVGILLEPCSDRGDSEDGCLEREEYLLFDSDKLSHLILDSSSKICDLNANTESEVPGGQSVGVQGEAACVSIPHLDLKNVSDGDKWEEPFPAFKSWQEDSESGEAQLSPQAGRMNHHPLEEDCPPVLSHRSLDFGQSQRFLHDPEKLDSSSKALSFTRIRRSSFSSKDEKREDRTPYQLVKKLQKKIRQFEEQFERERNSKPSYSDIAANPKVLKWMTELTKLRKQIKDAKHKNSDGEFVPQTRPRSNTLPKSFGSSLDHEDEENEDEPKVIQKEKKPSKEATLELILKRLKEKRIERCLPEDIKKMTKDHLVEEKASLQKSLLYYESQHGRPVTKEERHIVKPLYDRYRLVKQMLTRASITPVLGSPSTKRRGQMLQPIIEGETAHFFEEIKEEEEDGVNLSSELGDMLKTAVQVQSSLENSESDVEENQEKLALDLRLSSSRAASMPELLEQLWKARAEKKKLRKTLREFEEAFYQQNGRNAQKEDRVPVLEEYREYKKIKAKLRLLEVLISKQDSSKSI", "UniProt Q9NX04": "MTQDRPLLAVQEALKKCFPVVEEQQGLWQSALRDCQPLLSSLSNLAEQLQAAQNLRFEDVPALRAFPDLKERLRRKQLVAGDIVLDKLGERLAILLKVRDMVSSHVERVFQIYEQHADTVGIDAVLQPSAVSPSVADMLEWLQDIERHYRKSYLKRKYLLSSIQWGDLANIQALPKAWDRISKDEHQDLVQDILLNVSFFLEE", "UniProt Q9UHB9": "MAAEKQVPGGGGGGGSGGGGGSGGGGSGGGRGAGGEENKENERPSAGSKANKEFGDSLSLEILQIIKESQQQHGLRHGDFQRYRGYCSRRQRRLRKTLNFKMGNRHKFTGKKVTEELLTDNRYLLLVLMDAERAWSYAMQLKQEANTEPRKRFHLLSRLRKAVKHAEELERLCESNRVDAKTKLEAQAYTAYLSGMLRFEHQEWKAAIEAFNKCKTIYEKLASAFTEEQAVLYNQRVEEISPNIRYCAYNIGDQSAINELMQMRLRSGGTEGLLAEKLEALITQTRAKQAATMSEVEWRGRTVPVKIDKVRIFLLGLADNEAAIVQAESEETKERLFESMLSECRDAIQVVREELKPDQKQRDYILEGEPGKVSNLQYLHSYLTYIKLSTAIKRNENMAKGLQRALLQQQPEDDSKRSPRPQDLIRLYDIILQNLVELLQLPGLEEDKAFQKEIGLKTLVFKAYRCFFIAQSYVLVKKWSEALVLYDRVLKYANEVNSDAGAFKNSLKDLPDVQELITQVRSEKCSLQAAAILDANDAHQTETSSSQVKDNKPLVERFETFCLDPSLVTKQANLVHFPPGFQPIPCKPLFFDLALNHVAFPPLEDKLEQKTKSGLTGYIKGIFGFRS", "UniProt Q9P1Y5": "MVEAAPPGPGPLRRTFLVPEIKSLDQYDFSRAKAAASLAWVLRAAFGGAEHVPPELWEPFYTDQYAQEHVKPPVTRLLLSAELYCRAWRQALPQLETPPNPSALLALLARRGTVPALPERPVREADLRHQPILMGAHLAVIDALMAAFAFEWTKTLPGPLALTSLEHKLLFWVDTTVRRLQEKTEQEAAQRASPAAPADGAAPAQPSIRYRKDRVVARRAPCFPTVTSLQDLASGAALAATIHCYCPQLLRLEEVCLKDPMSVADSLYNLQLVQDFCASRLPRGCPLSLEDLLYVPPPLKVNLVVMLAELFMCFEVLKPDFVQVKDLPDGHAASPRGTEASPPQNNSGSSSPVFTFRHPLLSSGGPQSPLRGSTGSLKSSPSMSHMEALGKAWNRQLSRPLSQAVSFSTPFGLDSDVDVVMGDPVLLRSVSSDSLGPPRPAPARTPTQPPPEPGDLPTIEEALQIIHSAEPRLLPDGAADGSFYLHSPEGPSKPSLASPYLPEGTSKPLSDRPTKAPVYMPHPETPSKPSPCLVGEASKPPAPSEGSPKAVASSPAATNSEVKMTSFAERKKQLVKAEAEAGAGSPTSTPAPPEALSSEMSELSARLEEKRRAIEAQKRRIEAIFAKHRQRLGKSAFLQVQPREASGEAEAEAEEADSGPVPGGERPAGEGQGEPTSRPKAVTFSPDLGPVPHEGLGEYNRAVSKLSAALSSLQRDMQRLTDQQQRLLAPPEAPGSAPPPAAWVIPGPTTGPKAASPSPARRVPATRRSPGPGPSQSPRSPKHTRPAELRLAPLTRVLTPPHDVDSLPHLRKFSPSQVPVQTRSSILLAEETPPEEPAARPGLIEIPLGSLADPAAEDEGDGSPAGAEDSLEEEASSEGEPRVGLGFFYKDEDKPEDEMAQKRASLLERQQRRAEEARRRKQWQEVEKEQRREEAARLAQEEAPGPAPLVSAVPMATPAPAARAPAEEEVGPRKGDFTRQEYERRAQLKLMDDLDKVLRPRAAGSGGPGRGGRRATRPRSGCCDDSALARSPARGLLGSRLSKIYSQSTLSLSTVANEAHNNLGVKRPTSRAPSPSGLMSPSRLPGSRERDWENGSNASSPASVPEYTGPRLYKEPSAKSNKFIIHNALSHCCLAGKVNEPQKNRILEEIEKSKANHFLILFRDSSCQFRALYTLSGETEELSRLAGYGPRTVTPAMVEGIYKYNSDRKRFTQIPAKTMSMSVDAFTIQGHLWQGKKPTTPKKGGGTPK", "UniProt Q9UBK8": "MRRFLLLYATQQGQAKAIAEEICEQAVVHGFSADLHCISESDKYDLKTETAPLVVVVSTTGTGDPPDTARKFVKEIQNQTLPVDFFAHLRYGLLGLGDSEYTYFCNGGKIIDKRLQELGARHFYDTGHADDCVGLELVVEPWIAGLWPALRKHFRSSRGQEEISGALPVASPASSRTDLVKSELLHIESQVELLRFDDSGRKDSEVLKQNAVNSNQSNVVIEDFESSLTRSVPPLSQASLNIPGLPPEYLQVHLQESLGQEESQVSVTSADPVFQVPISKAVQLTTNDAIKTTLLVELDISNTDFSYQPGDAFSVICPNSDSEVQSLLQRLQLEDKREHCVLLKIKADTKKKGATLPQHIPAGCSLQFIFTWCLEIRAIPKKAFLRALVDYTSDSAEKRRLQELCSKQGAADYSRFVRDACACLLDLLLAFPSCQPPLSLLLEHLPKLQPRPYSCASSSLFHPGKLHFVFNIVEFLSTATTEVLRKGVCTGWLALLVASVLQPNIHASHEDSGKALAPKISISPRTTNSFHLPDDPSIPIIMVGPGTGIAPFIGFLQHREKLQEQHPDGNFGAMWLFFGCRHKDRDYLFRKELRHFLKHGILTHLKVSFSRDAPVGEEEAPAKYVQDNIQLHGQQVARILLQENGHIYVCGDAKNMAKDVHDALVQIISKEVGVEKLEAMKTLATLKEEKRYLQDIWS", "UniProt Q9P281": "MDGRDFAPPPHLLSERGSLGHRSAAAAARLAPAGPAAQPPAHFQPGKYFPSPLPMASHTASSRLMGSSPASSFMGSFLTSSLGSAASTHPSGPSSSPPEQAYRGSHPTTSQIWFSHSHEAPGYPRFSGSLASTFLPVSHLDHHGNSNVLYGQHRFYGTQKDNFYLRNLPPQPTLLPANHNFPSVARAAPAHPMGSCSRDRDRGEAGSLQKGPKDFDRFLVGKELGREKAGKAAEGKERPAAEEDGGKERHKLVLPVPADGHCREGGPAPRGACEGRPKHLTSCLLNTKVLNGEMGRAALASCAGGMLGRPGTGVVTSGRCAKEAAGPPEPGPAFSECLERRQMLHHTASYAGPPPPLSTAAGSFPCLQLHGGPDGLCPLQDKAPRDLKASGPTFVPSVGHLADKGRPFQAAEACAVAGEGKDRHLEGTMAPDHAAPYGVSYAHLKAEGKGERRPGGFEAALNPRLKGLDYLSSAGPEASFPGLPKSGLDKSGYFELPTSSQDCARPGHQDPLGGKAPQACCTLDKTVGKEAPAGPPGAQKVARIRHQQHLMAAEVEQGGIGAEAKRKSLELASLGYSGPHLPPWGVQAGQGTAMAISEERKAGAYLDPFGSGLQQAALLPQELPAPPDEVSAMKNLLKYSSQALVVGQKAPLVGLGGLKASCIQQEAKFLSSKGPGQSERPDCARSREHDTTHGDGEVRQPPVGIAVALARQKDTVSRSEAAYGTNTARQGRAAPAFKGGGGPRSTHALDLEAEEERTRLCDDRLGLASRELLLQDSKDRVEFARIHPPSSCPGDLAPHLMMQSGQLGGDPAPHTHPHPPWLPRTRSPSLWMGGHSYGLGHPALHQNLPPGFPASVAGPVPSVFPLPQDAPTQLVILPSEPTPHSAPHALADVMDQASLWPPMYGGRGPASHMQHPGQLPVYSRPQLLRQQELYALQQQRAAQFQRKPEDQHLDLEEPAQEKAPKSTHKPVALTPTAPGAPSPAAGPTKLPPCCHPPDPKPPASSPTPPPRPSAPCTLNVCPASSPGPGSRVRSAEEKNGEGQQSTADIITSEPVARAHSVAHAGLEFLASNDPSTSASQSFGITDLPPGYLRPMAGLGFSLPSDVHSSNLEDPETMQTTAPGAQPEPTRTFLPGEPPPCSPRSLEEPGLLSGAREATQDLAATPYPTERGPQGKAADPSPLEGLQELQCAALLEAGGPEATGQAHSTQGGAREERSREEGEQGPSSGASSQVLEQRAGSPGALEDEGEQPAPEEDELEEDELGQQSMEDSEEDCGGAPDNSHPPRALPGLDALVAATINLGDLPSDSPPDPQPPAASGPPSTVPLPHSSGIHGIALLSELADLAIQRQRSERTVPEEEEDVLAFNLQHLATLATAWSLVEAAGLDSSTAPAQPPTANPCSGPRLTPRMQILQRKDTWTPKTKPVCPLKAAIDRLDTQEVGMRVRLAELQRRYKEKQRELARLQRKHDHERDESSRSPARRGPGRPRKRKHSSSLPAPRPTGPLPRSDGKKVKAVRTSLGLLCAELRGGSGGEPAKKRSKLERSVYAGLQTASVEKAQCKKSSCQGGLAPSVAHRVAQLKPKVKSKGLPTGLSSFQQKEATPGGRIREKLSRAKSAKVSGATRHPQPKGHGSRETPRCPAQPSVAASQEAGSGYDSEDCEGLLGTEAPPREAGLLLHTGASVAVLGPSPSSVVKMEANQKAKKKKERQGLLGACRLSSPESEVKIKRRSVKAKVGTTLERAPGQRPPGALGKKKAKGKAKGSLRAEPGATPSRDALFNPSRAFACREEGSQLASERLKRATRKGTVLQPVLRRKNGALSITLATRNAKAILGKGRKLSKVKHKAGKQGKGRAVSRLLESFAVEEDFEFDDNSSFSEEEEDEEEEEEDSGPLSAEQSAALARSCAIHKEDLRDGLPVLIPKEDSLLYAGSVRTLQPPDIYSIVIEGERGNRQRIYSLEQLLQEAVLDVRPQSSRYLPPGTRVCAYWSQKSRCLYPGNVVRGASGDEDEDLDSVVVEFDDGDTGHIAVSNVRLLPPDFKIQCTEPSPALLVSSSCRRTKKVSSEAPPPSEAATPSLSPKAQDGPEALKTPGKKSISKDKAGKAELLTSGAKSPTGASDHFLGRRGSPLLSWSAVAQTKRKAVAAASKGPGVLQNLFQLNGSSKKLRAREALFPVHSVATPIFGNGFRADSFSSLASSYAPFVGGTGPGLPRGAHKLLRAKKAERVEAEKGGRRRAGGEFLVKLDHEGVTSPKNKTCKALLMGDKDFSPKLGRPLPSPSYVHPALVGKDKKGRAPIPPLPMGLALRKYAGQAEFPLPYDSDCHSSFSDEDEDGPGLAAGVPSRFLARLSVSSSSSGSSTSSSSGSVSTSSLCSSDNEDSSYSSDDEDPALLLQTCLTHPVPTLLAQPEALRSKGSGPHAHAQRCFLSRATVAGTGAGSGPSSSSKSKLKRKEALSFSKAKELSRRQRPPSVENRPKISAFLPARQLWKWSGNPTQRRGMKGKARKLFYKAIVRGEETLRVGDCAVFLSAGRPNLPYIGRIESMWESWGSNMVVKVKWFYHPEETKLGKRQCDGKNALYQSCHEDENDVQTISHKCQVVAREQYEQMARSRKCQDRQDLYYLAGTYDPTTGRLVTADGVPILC", "UniProt Q9UHA2": "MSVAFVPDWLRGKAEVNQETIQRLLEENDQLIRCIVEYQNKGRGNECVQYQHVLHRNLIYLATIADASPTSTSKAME"}, "source": "the supplement of paper PMC12819154", "about": "“High-throughput peptide-centric local stability assay extends protein–ligand identification to membrane proteins, tissues and bacteria” (Nature Structural & Molecular Biology, 2025)", "note": "Some of the results follow. Most entries show no effect beyond the scatter of the controls.", "data": [{"compound": "Cc1nc(Nc2ncc(C(=O)Nc3c(C)cccc3Cl)s2)cc(N2CCN(CCO)CC2)n1 [dasatinib]", "experiment": "log2 fold change of tryptic peptide abundance, ligand vs vehicle (limited proteolysis) (log2 ratio); higher = more trypsin-susceptible (destabilized)", "settings": "ligand concentration: 5 uM; sample: K562 cleared lysate", "values": [{"target": "MORF4L1 (peptide sequence: YVDTNLQK, peptide start residue: 104) (UniProt Q9UBU8)", "log2 fold change": 0.113}, {"target": "CGGBP1 (peptide sequence: VTEFGGELHEDGGK, peptide start residue: 27) (UniProt Q9UFW8)", "log2 fold change": 0.377}, {"target": "NOL12 (peptide sequence: KAAIEEIK, peptide start residue: 43) (UniProt Q9UGY1)", "log2 fold change": -0.205}, {"target": "ABI2 (peptide sequence: REIGILTTNKNTSR, peptide start residue: 107) (UniProt Q9NYB9)", "log2 fold change": 0.329}, {"target": "BICRA (peptide sequence: FHQVPSGIILQNK, peptide start residue: 963) (UniProt Q9NZM4)", "log2 fold change": -0.538}, {"target": "CLIP2 (peptide sequence: QQHIEQLLAER, peptide start residue: 361) (UniProt Q9UDT6)", "log2 fold change": 0.1}, {"target": "TMOD2 (peptide sequence: NIDEDELLGKLSEEELK, peptide start residue: 14) (UniProt Q9NZR1)", "log2 fold change": 0.314}, {"target": "PISD (peptide sequence: EAAVEDLHHYR, peptide start residue: 153) (UniProt Q9UG56)", "log2 fold change": 0.379}, {"target": "SEC63 (peptide sequence: KKPTPVLLPQSK, peptide start residue: 534) (UniProt Q9UGP8)", "log2 fold change": 0.00569}, {"target": "ATXN10 (peptide sequence: ALTALFKEQR, peptide start residue: 28) (UniProt Q9UBB4)", "log2 fold change": 0.336}, {"target": "UniProt Q9P0U3 (peptide sequence: EHSVHDSVELHLR, peptide start residue: 379)", "log2 fold change": -0.363}, {"target": "UTP6 (peptide sequence: TLPTEAMWK, peptide start residue: 319) (UniProt Q9NYH9)", "log2 fold change": 0.0958}, {"target": "UniProt Q9NYF5 (peptide sequence: SNDMPEVVQLR, peptide start residue: 258)", "log2 fold change": -0.083}, {"target": "DBF4 (peptide sequence: MSNKCSMLSTAEDDIR, peptide start residue: 430) (UniProt Q9UBU7)", "log2 fold change": -0.387}, {"target": "TUBGCP4 (peptide sequence: ILAVCHGVMYK, peptide start residue: 175) (UniProt Q9UGJ1)", "log2 fold change": -0.104}, {"target": "ADPRHL2 (peptide sequence: ALVQSLLAK, peptide start residue: 84) (UniProt Q9NX46)", "log2 fold change": 0.125}, {"target": "FBXL12 (peptide sequence: VMWHLLR, peptide start residue: 58) (UniProt Q9NXK8)", "log2 fold change": -0.205}, {"target": "C1orf109 (peptide sequence: FEDVPALR, peptide start residue: 57) (UniProt Q9NX04)", "log2 fold change": -0.0883}, {"target": "TEX10 (peptide sequence: EDGTLPTNNR, peptide start residue: 46) (UniProt Q9NXF1)", "log2 fold change": -0.164}, {"target": "SPAST (peptide sequence: VYVSLPNEETR, peptide start residue: 504) (UniProt Q9UBP0)", "log2 fold change": 0.0936}, {"target": "SRP68 (peptide sequence: DAIQVVREELKPDQK, peptide start residue: 346) (UniProt Q9UHB9)", "log2 fold change": -0.141}, {"target": "UniProt Q9NYJ8 (peptide sequence: NMSGQVSMGPAFIHHHPPK, peptide start residue: 421)", "log2 fold change": 0.191}, {"target": "COX16 (peptide sequence: GPRPWEDPDLLQGRNPESLK, peptide start residue: 83) (UniProt Q9P0S2)", "log2 fold change": -0.539}, {"target": "CAMSAP3 (peptide sequence: GSTGSLK, peptide start residue: 372) (UniProt Q9P1Y5)", "log2 fold change": -0.105}, {"target": "UniProt Q9P0J6 (peptide sequence: CKDCYLVK, peptide start residue: 76)", "log2 fold change": -0.0537}, {"target": "DONSON (peptide sequence: VAAEPPDGPAR, peptide start residue: 89) (UniProt Q9NYP3)", "log2 fold change": 0.121}, {"target": "IFT172 (peptide sequence: ASGLWEEAYR, peptide start residue: 1067) (UniProt Q9UG01)", "log2 fold change": 0.176}, {"target": "MTRR (peptide sequence: FDDSGRKDSEVLK, peptide start residue: 196) (UniProt Q9UBK8)", "log2 fold change": -0.158}, {"target": "KCMF1 (peptide sequence: QSMESER, peptide start residue: 307) (UniProt Q9P0J7)", "log2 fold change": 0.145}, {"target": "ETAA1 (peptide sequence: QIYTTDSDEISHIVNR, peptide start residue: 124) (UniProt Q9NY74)", "log2 fold change": -0.412}, {"target": "THUMPD1 (peptide sequence: SDQNNTAEGK, peptide start residue: 295) (UniProt Q9NXG2)", "log2 fold change": 0.169}, {"target": "C9orf78 (peptide sequence: DEDADMMK, peptide start residue: 110) (UniProt Q9NZ63)", "log2 fold change": -0.0764}, {"target": "VTI1B (peptide sequence: YGIYAVENEHMNR, peptide start residue: 112) (UniProt Q9UEU0)", "log2 fold change": 0.244}, {"target": "BAHCC1 (peptide sequence: KSSCQGGLAPSVAHR, peptide start residue: 1561) (UniProt Q9P281)", "log2 fold change": -0.68}, {"target": "EIF3K (peptide sequence: ALTNLPHTDFTLCK, peptide start residue: 73) (UniProt Q9UBQ5)", "log2 fold change": -0.192}, {"target": "UBP1 (peptide sequence: RLQYTEHQQLEGWK, peptide start residue: 125) (UniProt Q9NZI7)", "log2 fold change": 0.824}, {"target": "UniProt Q9UHA2 (peptide sequence: GNECVQYQHVLHR, peptide start residue: 44)", "log2 fold change": -0.192}, {"target": "UniProt Q9P032 (peptide sequence: MKPSVAPR, peptide start residue: 25)", "log2 fold change": 0.147}]}]}
